Reference: PubChem BioAssay AID1053208 (Peter MacCallum Cancer Centre, 2014)

Aim: 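Synthetic lethal interactions between gene loss and doxorubicin in osteosarcoma cells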 (primary screen)
Cells: mouse osteosarcoma cells, early-passage culture from an engineered mouse model of fibroblastic bone tumour
Reagent: siRNA pool against mouse genes, 40 nM
Timing: about 120 h (48 h before drug, then 72 h with drug)
Conditions: doxorubicin 100 nM for 72 h, roughly 30-40% inhibitory dose
Measurement: 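Luminescent ATP signal taken as viability with or without 100 nM doxorubicin for 72 h; mean of two wells set against non-targeting siRNA and turned into robust z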
Scale: viability z-score with doxorubicin and doxorubicin viability vs non-targeting: higher = more viable cells under doxorubicin; viability z-score without drug: higher = more viable cells with knock-down alone; z-score of drug to no-drug ratio: higher = less drug sensitisation by knock-down
Call rule: 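a pool counts as active when its viability z-score with doxorubicin is -2 or below and its z-score without drug lies between -2 and 2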
In all, the deposit lists about 17,000 reagents; shown is a random part of them. Of all reagents, 788 (4.7%) got an active call. 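Calls rest on z-score classes alone; an extra cut-off of viability at most 70% of control was not applied to them.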 Entries without a mark were called inactive.

| Target gene | PubChem SID | combined z-score class | viability z-score with doxorubicin | viability z-score without drug | z-score of drug to no-drug ratio | doxorubicin viability vs non-targeting |
| --- | --- | --- | --- | --- | --- | --- |
| Ptgis | SID152285033 | no change with or without drug | 0 | 0.84 | -0.45 | 0.94 |
| Ephb4 | SID152277543 | no change with or without drug | -0.45 | -1.35 | 0.56 | 0.9 |
| Cct8 | SID152341587 | low cell count without drug only | -1.69 | -3.71 | 1.12 | 0.79 |
| Or14j5 | SID152341270 | no change with or without drug | -0.45 | -0.84 | 0.22 | 0.9 |
| Rb1 | SID152329142 | no change with or without drug | 1.46 | 0.84 | 1.01 | 1.07 |
| Prkch | SID152272615 | no change with or without drug | 1.12 | 1.52 | 0.22 | 1.04 |
| Rpl22l1 | SID152287944 | no change with or without drug | -1.24 | -1.35 | -0.34 | 0.83 |
| Nhp2 | SID152292600 | no change with or without drug | 0.11 | 1.18 | -0.56 | 0.95 |
| Ehd3 | SID152291938 | no change with or without drug | -1.12 | 0.34 | -1.24 | 0.84 |
| Eid3 | SID152301706 | low cell count with doxorubicin only (active) | -4.05 | -0.67 | -3.82 | 0.58 |
| Or2y13 | SID152269683 | no change with or without drug | 0 | -0.51 | 0.45 | 0.94 |
| Abl2 | SID152291957 | no change with or without drug | -0.9 | 0.34 | -1.01 | 0.86 |
| Cep128 | SID152274621 | high cell count without drug only | 1.57 | 2.87 | -0.22 | 1.08 |
| Tnfsf10 | SID152305804 | no change with or without drug | 0.56 | 0.34 | 0.45 | 0.99 |
| Luc7l | SID152275573 | no change with or without drug | 0.22 | 0.17 | 0.22 | 0.96 |
| Shq1 | SID152308166 | no change with or without drug | 1.35 | -0.17 | 1.69 | 1.06 |
| Msantd1 | SID152337056 | no change with or without drug | 0.67 | 1.01 | 0.11 | 1 |
| Prox2 | SID152285129 | no change with or without drug | -0.45 | 0.51 | -0.67 | 0.9 |
| Gk5 | SID152323299 | no change with or without drug | 0 | -0.17 | 0.22 | 0.94 |
| Alox5ap | SID152321339 | no change with or without drug | 0.67 | 0.34 | 0.56 | 1 |
| Ly6m | SID152333642 | no change with or without drug | -1.12 | 0.51 | -1.35 | 0.84 |

Called active, of those listed so far:
| Target gene | PubChem SID | combined z-score class | viability z-score with doxorubicin | viability z-score without drug | z-score of drug to no-drug ratio | doxorubicin viability vs non-targeting |
| --- | --- | --- | --- | --- | --- | --- |
| Eid3 | SID152301706 | low cell count with doxorubicin only (active) | -4.05 | -0.67 | -3.82 | 0.58 |

Additional records follow:
| Target gene | PubChem SID | combined z-score class | viability z-score with doxorubicin | viability z-score without drug | z-score of drug to no-drug ratio | doxorubicin viability vs non-targeting |
| --- | --- | --- | --- | --- | --- | --- |
| Ccdc157 | SID152333097 | no change with or without drug | 0.11 | -0.17 | 0.34 | 0.95 |
| Spart | SID152265466 | no change with or without drug | 0.45 | -0.17 | 0.67 | 0.98 |
| Gap43 | SID152280441 | no change with or without drug | -1.24 | -1.85 | 0.11 | 0.83 |
| Fgf11 | SID152320399 | no change with or without drug | -0.79 | 0.51 | -1.01 | 0.87 |
| Slc19a2 | SID152333171 | no change with or without drug | -1.35 | -1.85 | 0 | 0.82 |
| Cimap1c | SID152306556 | no change with or without drug | -0.9 | 0.84 | -1.35 | 0.86 |
| Mcam | SID152303076 | no change with or without drug | 0.22 | 0.67 | -0.11 | 0.96 |
| Rag1 | SID152270003 | no change with or without drug | 0.9 | -0.84 | 1.69 | 1.02 |
| Hlf | SID152273285 | no change with or without drug | -0.45 | 0.17 | -0.45 | 0.9 |
| Rnf220 | SID152330925 | no change with or without drug | -0.34 | -0.84 | 0.34 | 0.91 |
| Tmem139 | SID152306538 | no change with or without drug | 0 | -1.85 | 1.57 | 0.94 |
| 4930556L07Rik | SID152310100 | no change with or without drug | 0.45 | -0.67 | 1.12 | 0.98 |
| Angpt2 | SID152328950 | low cell count without drug only | -1.35 | -2.19 | 0.22 | 0.82 |
| Amhr2 | SID152324778 | no change with or without drug | 1.46 | -0.67 | 2.25 | 1.07 |
| Efcab12 | SID152298616 | no change with or without drug | 0 | 1.18 | -0.67 | 0.94 |
| Or8b9 | SID152302186 | no change with or without drug | 1.12 | 1.52 | 0.22 | 1.04 |
| Or2y8 | SID152334163 | low cell count without drug only | 0.34 | -2.19 | 2.25 | 0.97 |
| Or8h10 | SID152339631 | no change with or without drug | 0.9 | 1.01 | 0.34 | 1.02 |
| Pdlim7 | SID152269476 | no change with or without drug | -0.67 | -0.84 | 0 | 0.88 |
| Top2b | SID152331790 | no change with or without drug | 0.22 | 0 | 0.34 | 0.96 |
| Tubb6 | SID152332439 | high cell count without drug only | 1.69 | 2.02 | 0.45 | 1.09 |
| Slc7a10 | SID152299934 | low cell count with doxorubicin only (active) | -2.36 | -1.18 | -1.69 | 0.73 |
| C5ar1 | SID152272226 | no change with or without drug | -0.56 | 0.51 | -0.79 | 0.89 |
| S100b | SID152299186 | no change with or without drug | -0.22 | 0.17 | -0.22 | 0.92 |
| Wdr7 | SID152275377 | no change with or without drug | -1.12 | -0.34 | -0.9 | 0.84 |
| Cx3cl1 | SID152304539 | no change with or without drug | -0.79 | -1.85 | 0.67 | 0.87 |
| Trim9 | SID152262216 | no change with or without drug | 0.22 | 0.17 | 0.22 | 0.96 |
| Trim9 | SID152316834 | no change with or without drug | -0.11 | -0.17 | 0.11 | 0.93 |
| Ucn | SID152292130 | no change with or without drug | 1.35 | 1.85 | 0.22 | 1.06 |
